Laboratory results as given in the supplement of paper PMC7877785.
± gives the uncertainty stated by the source. Many of these values have a large error.

Assay: self-splicing fitness, log relative to wild type (ln ratio); higher = more splicing; Tetrahymena group I intron in knt gene, E. coli kanamycin selection, DiMSum; sequences stand for … in CUCUCU…GGAGGGAAAAGUUAUCAGGCAUGCACCUGGUAGCUAGUCUUUAAACCAAUAGAUUGCAUCGGUUUAAAAGGCAAGACCGUCAAAUUGCGGGAAAGGGGUCAACAGCCGUUCAGUACCAAGUCUCAGGGGAAACUUUGAGAUGGCCUUGCAAAGGGUAUGGUAAUAAGCUGACGGACAUGGUCCUAACCACGCAGCCAAGUCCUAAGUCAACAGAUCUUCUGUUGAUAUGGAUGCAGUUCACAGACUAAAUGUCGGUCGGGGAAGAUGUAUUCUUCUCAUAAGAUAUAGUCGGACCUCUCCUUAAUGGGAGCUAGCGGAUGAAGUGAUGCAACACUGGAGCCGCUGGGAACUAAUUUGUAUGCGAAAGUAUAUUGAUUAGUUUUGGAGUACUCGUGGUCG
In short: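 Pooled colonies went to amplicon sequencing on an Illumina HiSeq 2500 after six replicate transformations. The plates were LB agar with 100 μg/mL carbenicillin, 50 μM IPTG and 0.2% rhamnose, with or without 25 μg/mL kanamycin, incubated overnight at 37°C or 30°C. The E. coli BL21(DE3) library had all eight P1ex-region intron nucleotides randomised, the intron placed in the knt kanamycin-resistance gene on pET-22b(+). DiMSum fitness is the error-weighted combination of replicate fold changes, kanamycin against none, normalised to wild type.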

CGAGAGCAAUAUUACGUUAA
self-splicing fitness (ln) (37 °C): -2.57 ± 0.54

CAGGAGCAAUAUUACGGCCC
self-splicing fitness (ln) (30 °C): -1.32 ± 1.4 | self-splicing fitness (ln) (37 °C): -1.46 ± 0.74

GGGGAGCAAUAUUACGAGUG
self-splicing fitness (ln) (37 °C): -2.52 ± 0.66

CGUGAGCAAUAUUACGGGUA
self-splicing fitness (ln) (30 °C): -2.65 ± 1.1

ACUCAGCAAUAUUACGUUUA
self-splicing fitness (ln) (30 °C): -1.54 ± 0.078 | self-splicing fitness (ln) (37 °C): -0.51 ± 0.086

UCAUAGCAAUAUUACGGUAU
self-splicing fitness (ln) (30 °C): -5.04 ± 1

UCUUAGCAAUAUUACGGUCG
self-splicing fitness (ln) (30 °C): -0.895 ± 0.16 | self-splicing fitness (ln) (37 °C): -1.37 ± 0.33

AGCUAGCAAUAUUACGAGAA
self-splicing fitness (ln) (30 °C): -1.99 ± 0.59 | self-splicing fitness (ln) (37 °C): -1.46 ± 0.74

UCUUAGCAAUAUUACGCUUA
self-splicing fitness (ln) (30 °C): -2.97 ± 0.52

GGAGAGCAAUAUUACGACAA
self-splicing fitness (ln) (30 °C): -2.09 ± 1.4

UCCGAGCAAUAUUACGCCGC
self-splicing fitness (ln) (30 °C): -3 ± 0.62

UAAUAGCAAUAUUACGACCC
self-splicing fitness (ln) (37 °C): -1.78 ± 1.2

GUCGAGCAAUAUUACGAGCA
self-splicing fitness (ln) (37 °C): -0.634 ± 0.52

CGAGAGCAAUAUUACGCAAU
self-splicing fitness (ln) (37 °C): -1.27 ± 0.56

AAUGAGCAAUAUUACGAGAC
self-splicing fitness (ln) (30 °C): -2.61 ± 0.51 | self-splicing fitness (ln) (37 °C): -2.56 ± 0.76

GUGGAGCAAUAUUACGAGAA
self-splicing fitness (ln) (30 °C): 0.234 ± 0.67 | self-splicing fitness (ln) (37 °C): -1.37 ± 1.2

UGUAAGCAAUAUUACGACAC
self-splicing fitness (ln) (37 °C): -2.04 ± 0.56

CAGAAGCAAUAUUACGACCA
self-splicing fitness (ln) (37 °C): -3.62 ± 0.52

CCUGAGCAAUAUUACGUCCA
self-splicing fitness (ln) (37 °C): -2.83 ± 0.54

UGAAAGCAAUAUUACGACCC
self-splicing fitness (ln) (37 °C): -1.33 ± 0.63

GGAUAGCAAUAUUACGCCGC
self-splicing fitness (ln) (30 °C): -3.72 ± 0.73 | self-splicing fitness (ln) (37 °C): -0.941 ± 0.93

GGGUAGCAAUAUUACGAAAG
self-splicing fitness (ln) (30 °C): -3.48 ± 1.1

ACGAAGCAAUAUUACGACAU
self-splicing fitness (ln) (30 °C): -0.681 ± 0.011 | self-splicing fitness (ln) (37 °C): -0.109 ± 0.032

CGGGAGCAAUAUUACGAUCG
self-splicing fitness (ln) (30 °C): -3.42 ± 0.6 | self-splicing fitness (ln) (37 °C): -3.62 ± 0.73

UCGCAGCAAUAUUACGCCUC
self-splicing fitness (ln) (30 °C): -5.02 ± 0.72

AGUUAGCAAUAUUACGCCAC
self-splicing fitness (ln) (37 °C): -2.52 ± 1.1

GUUGAGCAAUAUUACGGGUA
self-splicing fitness (ln) (37 °C): -4.4 ± 1

CCAUAGCAAUAUUACGCUAU
self-splicing fitness (ln) (30 °C): -4.67 ± 0.72

AGAGAGCAAUAUUACGCGAG
self-splicing fitness (ln) (37 °C): -2.59 ± 0.54

AUGCAGCAAUAUUACGAAUU
self-splicing fitness (ln) (30 °C): -1.9 ± 0.1 | self-splicing fitness (ln) (37 °C): -0.246 ± 0.12

UACUAGCAAUAUUACGACCC
self-splicing fitness (ln) (30 °C): -1.97 ± 1.2

AGUGAGCAAUAUUACGCCCG
self-splicing fitness (ln) (37 °C): -1.4 ± 0.9

UCAUAGCAAUAUUACGGGAC
self-splicing fitness (ln) (30 °C): -2.96 ± 0.27 | self-splicing fitness (ln) (37 °C): -3.97 ± 0.39

UUCUAGCAAUAUUACGAGAG
self-splicing fitness (ln) (30 °C): -2.3 ± 0.22 | self-splicing fitness (ln) (37 °C): -2.4 ± 0.29

UUAAAGCAAUAUUACGCUUC
self-splicing fitness (ln) (37 °C): -1.49 ± 0.61

GAGGAGCAAUAUUACGCCUC
self-splicing fitness (ln) (30 °C): -3.13 ± 0.63

GCUUAGCAAUAUUACGCGCC
self-splicing fitness (ln) (37 °C): 0.862 ± 0.51

GUGGAGCAAUAUUACGCUGU
self-splicing fitness (ln) (30 °C): -3.19 ± 0.82 | self-splicing fitness (ln) (37 °C): -4.56 ± 0.59

CACUAGCAAUAUUACGUCGA
self-splicing fitness (ln) (30 °C): -1.58 ± 0.13 | self-splicing fitness (ln) (37 °C): -1.48 ± 0.1

CACGAGCAAUAUUACGUCCA
self-splicing fitness (ln) (30 °C): -3.49 ± 0.6 | self-splicing fitness (ln) (37 °C): -2.48 ± 1.1

GCGGAGCAAUAUUACGCAGA
self-splicing fitness (ln) (30 °C): -4.93 ± 1 | self-splicing fitness (ln) (37 °C): -3.26 ± 1

AUUGAGCAAUAUUACGGAGC
self-splicing fitness (ln) (30 °C): -4.16 ± 1 | self-splicing fitness (ln) (37 °C): -2.68 ± 0.54

UAAGAGCAAUAUUACGAGAC
self-splicing fitness (ln) (30 °C): -2.64 ± 0.56

CGGGAGCAAUAUUACGUCCA
self-splicing fitness (ln) (30 °C): -1.17 ± 0.63 | self-splicing fitness (ln) (37 °C): -1.07 ± 0.9

CGUCAGCAAUAUUACGCGGC
self-splicing fitness (ln) (30 °C): -2.47 ± 0.63 | self-splicing fitness (ln) (37 °C): -1.33 ± 1.2

CGCGAGCAAUAUUACGCUAU
self-splicing fitness (ln) (30 °C): -3.44 ± 0.34 | self-splicing fitness (ln) (37 °C): -2.2 ± 0.23

UUCUAGCAAUAUUACGCGAU
self-splicing fitness (ln) (37 °C): -2.92 ± 0.61

CAAAAGCAAUAUUACGUUCC
self-splicing fitness (ln) (30 °C): -2.34 ± 0.33 | self-splicing fitness (ln) (37 °C): -2.17 ± 0.36

CUCUAGCAAUAUUACGAAGA
self-splicing fitness (ln) (30 °C): -3.76 ± 0.64

UGCCAGCAAUAUUACGCGAA
self-splicing fitness (ln) (30 °C): -1.33 ± 0.11 | self-splicing fitness (ln) (37 °C): 0.357 ± 0.11

GGUGAGCAAUAUUACGGGCC
self-splicing fitness (ln) (30 °C): -4.63 ± 1 | self-splicing fitness (ln) (37 °C): -2 ± 0.57

GUCUAGCAAUAUUACGGCUA
self-splicing fitness (ln) (30 °C): -3.13 ± 0.74

CACGAGCAAUAUUACGAUUC
self-splicing fitness (ln) (30 °C): -3.44 ± 0.15 | self-splicing fitness (ln) (37 °C): -2.49 ± 0.17

AUCAAGCAAUAUUACGAAGC
self-splicing fitness (ln) (37 °C): -2.79 ± 0.74

GAAGAGCAAUAUUACGACGA
self-splicing fitness (ln) (30 °C): -1.32 ± 1.4

CCUCAGCAAUAUUACGCUAC
self-splicing fitness (ln) (37 °C): -2.11 ± 0.5

UUUGAGCAAUAUUACGCACG
self-splicing fitness (ln) (30 °C): -3.19 ± 0.52

GGUCAGCAAUAUUACGAAUG
self-splicing fitness (ln) (30 °C): -0.0371 ± 0.078 | self-splicing fitness (ln) (37 °C): -0.989 ± 0.1

GUGUAGCAAUAUUACGCUAC
self-splicing fitness (ln) (37 °C): -1.88 ± 1.2

CUUCAGCAAUAUUACGUCAA
self-splicing fitness (ln) (37 °C): -3.44 ± 0.73
